Experimental data reported in the supplement of paper PMC10849652.
This is one part of the list.

By UniProt entry, the sequences of proteins in these tests, tags left out. Where a name states a change or a piece, a line headed by the entry shows the natural chain unless it says otherwise.
UniProt A1L3X0: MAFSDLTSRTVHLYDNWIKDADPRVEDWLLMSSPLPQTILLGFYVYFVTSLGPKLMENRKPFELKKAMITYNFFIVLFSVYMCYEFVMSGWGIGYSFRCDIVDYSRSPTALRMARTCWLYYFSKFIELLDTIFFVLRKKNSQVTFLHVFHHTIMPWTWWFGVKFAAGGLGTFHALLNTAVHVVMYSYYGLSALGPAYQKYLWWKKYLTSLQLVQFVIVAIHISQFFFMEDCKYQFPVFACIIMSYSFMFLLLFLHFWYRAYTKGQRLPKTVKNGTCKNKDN
UniProt O95163: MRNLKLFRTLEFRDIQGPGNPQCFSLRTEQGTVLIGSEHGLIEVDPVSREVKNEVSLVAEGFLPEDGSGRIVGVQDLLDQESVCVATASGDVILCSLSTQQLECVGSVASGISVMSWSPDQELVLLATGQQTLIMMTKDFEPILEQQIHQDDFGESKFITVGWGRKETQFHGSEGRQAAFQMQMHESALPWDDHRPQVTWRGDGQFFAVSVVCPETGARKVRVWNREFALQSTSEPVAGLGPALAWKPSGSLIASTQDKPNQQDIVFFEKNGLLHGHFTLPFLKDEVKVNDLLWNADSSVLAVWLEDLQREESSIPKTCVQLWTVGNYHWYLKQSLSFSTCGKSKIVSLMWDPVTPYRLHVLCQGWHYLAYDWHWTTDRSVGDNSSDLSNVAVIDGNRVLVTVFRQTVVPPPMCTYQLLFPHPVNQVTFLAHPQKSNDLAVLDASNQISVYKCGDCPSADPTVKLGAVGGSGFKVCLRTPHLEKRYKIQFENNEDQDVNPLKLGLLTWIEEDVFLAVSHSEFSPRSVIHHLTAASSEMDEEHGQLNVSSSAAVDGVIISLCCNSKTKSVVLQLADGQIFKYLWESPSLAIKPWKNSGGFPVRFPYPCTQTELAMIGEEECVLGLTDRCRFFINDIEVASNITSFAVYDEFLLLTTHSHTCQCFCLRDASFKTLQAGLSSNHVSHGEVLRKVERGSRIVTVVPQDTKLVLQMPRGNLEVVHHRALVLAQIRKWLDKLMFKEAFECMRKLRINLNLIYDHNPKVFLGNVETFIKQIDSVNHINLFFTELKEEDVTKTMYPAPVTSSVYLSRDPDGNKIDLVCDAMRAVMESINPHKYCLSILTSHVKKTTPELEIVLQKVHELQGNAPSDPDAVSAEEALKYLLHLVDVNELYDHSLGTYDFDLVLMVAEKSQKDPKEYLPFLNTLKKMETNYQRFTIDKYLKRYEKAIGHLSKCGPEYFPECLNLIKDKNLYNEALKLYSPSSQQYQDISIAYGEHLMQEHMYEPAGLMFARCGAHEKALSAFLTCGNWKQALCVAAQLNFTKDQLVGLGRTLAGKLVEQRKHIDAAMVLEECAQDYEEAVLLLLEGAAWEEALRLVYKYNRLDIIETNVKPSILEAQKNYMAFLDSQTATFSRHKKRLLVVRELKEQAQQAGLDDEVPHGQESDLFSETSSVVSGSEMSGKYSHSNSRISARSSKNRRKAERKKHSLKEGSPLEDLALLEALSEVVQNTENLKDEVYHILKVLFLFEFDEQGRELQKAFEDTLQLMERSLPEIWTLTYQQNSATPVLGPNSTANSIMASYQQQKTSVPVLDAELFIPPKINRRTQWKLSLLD
UniProt Q13144, whole entry, looked up: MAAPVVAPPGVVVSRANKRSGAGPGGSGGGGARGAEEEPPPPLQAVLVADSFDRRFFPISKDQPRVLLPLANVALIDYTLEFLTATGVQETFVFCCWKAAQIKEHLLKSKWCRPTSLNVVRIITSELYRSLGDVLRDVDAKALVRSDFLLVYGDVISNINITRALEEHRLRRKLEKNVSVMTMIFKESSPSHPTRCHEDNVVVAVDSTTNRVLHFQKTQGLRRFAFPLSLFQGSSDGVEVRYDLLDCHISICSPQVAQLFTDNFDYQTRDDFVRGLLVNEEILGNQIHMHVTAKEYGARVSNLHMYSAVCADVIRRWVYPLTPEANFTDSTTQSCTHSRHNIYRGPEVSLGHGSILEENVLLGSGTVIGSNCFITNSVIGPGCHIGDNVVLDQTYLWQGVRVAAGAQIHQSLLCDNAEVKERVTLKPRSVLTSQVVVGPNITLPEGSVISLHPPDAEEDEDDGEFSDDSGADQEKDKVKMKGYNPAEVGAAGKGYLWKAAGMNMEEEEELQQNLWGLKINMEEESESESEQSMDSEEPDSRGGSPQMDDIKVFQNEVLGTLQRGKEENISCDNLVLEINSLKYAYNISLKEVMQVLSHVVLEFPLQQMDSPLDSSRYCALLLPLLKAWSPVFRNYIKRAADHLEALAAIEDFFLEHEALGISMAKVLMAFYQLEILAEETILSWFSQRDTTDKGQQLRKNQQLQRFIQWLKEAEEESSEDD
UniProt Q9HCE0: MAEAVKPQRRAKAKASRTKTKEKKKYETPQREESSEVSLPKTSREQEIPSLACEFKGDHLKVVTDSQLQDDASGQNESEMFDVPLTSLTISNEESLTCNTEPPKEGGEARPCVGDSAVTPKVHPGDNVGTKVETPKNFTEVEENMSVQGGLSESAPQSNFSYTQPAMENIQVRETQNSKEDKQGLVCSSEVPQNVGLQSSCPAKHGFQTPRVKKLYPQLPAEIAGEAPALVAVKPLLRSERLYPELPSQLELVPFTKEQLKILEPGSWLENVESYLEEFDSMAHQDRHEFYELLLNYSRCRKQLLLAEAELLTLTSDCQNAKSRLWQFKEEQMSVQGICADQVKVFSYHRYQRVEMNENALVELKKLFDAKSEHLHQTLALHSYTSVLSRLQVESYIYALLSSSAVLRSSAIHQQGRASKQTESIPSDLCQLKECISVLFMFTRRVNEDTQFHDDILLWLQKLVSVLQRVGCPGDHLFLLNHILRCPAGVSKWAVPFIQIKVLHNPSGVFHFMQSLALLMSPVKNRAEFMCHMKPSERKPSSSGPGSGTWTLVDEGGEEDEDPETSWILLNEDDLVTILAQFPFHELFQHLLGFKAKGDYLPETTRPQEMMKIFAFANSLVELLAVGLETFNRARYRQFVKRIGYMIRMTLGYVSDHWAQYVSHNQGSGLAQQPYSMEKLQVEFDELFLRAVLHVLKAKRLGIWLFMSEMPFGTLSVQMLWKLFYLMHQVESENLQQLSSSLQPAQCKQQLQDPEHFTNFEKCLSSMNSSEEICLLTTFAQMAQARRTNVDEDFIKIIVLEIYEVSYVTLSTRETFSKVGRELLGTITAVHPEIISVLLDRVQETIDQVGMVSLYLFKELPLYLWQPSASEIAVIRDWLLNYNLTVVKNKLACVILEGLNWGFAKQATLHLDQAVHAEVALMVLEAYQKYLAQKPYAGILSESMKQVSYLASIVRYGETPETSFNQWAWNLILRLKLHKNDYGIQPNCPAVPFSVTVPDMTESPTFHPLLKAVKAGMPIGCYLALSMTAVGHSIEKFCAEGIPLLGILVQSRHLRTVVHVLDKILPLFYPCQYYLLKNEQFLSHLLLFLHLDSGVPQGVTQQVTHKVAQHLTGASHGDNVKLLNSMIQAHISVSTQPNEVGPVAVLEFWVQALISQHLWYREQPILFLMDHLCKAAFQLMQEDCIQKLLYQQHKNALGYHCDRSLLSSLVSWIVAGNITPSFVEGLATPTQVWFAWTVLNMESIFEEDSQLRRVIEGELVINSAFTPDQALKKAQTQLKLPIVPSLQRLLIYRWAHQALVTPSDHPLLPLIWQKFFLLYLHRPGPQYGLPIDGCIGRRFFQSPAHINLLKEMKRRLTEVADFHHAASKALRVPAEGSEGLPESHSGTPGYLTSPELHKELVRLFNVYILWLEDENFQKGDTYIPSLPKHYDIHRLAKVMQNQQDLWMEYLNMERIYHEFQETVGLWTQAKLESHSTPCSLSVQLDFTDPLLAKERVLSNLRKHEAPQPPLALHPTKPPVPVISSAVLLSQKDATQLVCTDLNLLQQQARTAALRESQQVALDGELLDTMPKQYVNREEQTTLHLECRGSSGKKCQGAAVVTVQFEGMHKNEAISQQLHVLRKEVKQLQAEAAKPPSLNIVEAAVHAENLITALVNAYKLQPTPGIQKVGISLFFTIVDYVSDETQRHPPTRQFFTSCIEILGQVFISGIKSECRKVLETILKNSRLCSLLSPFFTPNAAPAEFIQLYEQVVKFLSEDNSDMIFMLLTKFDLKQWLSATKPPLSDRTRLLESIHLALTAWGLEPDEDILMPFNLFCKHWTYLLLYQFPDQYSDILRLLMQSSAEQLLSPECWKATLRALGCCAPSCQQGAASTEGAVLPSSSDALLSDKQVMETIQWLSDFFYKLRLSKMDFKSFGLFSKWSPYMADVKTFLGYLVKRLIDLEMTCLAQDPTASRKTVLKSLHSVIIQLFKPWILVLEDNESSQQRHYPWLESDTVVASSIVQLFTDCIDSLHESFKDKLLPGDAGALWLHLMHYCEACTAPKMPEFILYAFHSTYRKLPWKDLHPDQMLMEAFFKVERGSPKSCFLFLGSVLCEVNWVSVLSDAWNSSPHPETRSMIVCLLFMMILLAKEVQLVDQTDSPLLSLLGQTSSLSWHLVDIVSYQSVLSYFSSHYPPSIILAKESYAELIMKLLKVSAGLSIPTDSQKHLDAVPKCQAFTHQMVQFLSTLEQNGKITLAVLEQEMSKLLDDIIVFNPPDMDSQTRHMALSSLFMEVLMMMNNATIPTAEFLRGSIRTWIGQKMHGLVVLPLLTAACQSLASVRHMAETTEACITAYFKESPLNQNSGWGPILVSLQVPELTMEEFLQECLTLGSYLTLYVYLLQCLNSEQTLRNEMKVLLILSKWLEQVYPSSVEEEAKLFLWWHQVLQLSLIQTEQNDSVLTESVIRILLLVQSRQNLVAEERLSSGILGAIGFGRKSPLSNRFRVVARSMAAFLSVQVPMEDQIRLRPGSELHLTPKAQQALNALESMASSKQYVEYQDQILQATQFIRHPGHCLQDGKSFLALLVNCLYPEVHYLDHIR
UniProt Q8N5X7: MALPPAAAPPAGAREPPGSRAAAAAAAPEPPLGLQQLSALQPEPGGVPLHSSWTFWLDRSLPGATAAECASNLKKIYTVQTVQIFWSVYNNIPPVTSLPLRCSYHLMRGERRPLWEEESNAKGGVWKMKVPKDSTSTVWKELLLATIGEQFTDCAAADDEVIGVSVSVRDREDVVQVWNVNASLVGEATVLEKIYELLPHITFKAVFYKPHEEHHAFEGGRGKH
UniProt P06730, whole entry, looked up: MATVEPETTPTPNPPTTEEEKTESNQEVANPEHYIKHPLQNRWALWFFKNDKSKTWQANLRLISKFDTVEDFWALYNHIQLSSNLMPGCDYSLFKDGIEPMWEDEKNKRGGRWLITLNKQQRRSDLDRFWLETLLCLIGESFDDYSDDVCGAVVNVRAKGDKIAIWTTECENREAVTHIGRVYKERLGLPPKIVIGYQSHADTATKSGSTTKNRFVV
UniProt Q9H9T3: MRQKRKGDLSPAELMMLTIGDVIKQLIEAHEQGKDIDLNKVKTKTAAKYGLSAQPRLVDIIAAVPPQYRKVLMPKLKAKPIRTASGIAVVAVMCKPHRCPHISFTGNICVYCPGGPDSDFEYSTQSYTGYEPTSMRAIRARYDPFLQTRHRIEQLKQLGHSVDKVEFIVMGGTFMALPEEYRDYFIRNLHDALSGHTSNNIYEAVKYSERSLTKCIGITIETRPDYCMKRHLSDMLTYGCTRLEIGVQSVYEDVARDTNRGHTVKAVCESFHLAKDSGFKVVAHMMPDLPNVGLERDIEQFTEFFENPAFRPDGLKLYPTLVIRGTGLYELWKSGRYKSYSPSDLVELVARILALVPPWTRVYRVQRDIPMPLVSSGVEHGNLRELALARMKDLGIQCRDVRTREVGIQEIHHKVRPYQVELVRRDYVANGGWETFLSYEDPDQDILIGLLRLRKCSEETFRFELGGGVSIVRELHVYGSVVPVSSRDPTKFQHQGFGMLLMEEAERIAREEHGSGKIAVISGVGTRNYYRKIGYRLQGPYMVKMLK
UniProt Q92979: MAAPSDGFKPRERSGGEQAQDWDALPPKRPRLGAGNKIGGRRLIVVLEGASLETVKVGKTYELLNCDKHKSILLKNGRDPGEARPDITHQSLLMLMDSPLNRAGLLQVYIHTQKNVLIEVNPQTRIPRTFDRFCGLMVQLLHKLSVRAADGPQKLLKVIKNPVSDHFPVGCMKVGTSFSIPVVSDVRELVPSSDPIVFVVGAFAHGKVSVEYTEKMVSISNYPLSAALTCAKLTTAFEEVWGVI

Assays:
Test in all cases: log2 fold change, soluble protein after heating vs DMSO (PISA); higher = thermal stabilisation; K562 lysate, 10 uM; active = over 0.2 and 3.5 SD of the protein, either way, in both replicates (recomputed)
erlotinib = compound: C#Cc1cccc(Nc2ncnc3cc(OCCOC)c(OCCOC)cc23)c1 [erlotinib]
Outline: (§1)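 To prepare the extract, K562 pellets were dounce-homogenised in PBS pH 7.4 with 1 mM MgCl2, giving crude material at 1 mg/mL protein. This was treated with 10 μM compound for 30 min, then heated in aliquots for 3 min over 48°C-58°C before pooling and addition of NP-40 to 0.5% at 4°C. Centrifugation at 21,000xg for 90 min left soluble protein in the supernatant, which TMTpro 16plex LC-MS/MS quantified with equalised channel sums. Results are log-two fold changes in thermal stability compared with solvent controls, from duplicates.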

[1] = compound: C1=CC(=CC=C1C2=NC3=C(N2)C=C(C=C3)C(=O)N)OC4=CC=C(C=C4)Cl
Outline: as §1

[2] = compound: C1=CC2=NC=CN=C2C=C1/C=C/3\C(=O)NC(=O)S3
Outline: as §1

[3] = compound: C1=CC=C(C=C1)C2=NC(=C(N2)C3=CC=NC=C3)C4=CC(=C(C=C4)Cl)O
Outline: as §1

IRAK-1-4 Inhibitor I = compound: C1COCCN1CCN2C3=CC=CC=C3N=C2NC(=O)C4=CC(=CC=C4)[N+](=O)[O-] [IRAK-1-4 Inhibitor I]
Outline: as §1

ibrutinib = compound: C=CC(=O)N1CCC[C@@H](n2nc(-c3ccc(Oc4ccccc4)cc3)c3c(N)ncnc32)C1 [ibrutinib]
Outline: as §1

[4] = compound: CC(=O)c1cnc2ccc(-c3cc(Cl)c(O)c(Cl)c3)nc2c1N[C@H]1CC[C@H](CN(C)C)CC1
Outline: as §1

ralimetinib = compound: CC(C)(C)Cn1c(N)nc2ccc(-c3[nH]c(C(C)(C)C)nc3-c3ccc(F)cc3)nc21 [ralimetinib]
Outline: as §1

[5] = compound: CC(C)(O)CC(=O)NCCn1ccc2ncnc(Nc3ccc(Oc4cccc(C(F)(F)F)c4)c(Cl)c3)c21
Outline: as §1

[6] = compound: CC(C)C1=C2N=C(C=C(N2N=C1)NCC3=CC=CC=C3)NCCCCCCN
Outline: as §1

[7] = compound: CC1=C(C(CC(=O)N1)C2=CC=C(C=C2)C(F)(F)F)C(=O)NC3=C(C=C4C(=C3)C=NN4)F
Outline: as §1

[8] = compound: CC1=C(C2=C(C=C1)C(=O)C3=CC=CC=C3N2CCCN)C
Outline: as §1

[9] = compound: CC1=C(C=C(C=C1)NC(=O)C2=CC(=CC=C2)N(C)C)NC(=O)C3=CC=C(C=C3)O
Outline: as §1

[10] = compound: CC1=CC=C(C=C1)SC2=C3C=C(SC3=CN=C2)C(=O)N
Outline: as §1

[11] = compound: C/C(=N\NC(=O)C1=CC(=CC=C1)S(=O)(=O)N2CCOCC2)/C3=C(C=CC(=C3)Cl)O
Outline: as §1

[12] = compound: C1=CC2=C(C=CC(=C2)/C=C\3/C(=O)NC(=NCC4=CC=CS4)S3)N=C1
Outline: as §1

[13] = compound: C1=CC=C2C(=C1)C3=NNC4=CC=CC(=C43)C2=O
Outline: as §1

[14] = compound: C1CCN(C1)C(=O)NC2=CC=CC(=C2)NC3=NC=C(C(=N3)NCCC4=CN=CN4)Br
Outline: as §1

[15] = compound: C1CN(CCC1(CC2=CC=C(C=C2)Cl)N)C3=NC=NC4=C3C=CN4
Outline: as §1

[16] = compound: CC1=C(C=C(C=C1)NC(=O)C2=CC(=CC=C2)C(C)(C)C#N)NC3=CC4=C(C=C3)N=CN(C4=O)C
Outline: as §1

Measured: log2 fold change

ELOVL7 (UniProt A1L3X0)
inactive: erlotinib -0.08 | [1] -0.266 | [2] 0.09 | [3] -0.1 | IRAK-1-4 Inhibitor I 0.131 | ibrutinib 0.028 | [4] 0.045 | ralimetinib 0.06 | [5] -0.064 | [6] -0.187 | [7] 0.119 | [8] -0.038 | [9] 0.024 | [10] 0

ELP1 (UniProt O95163)
inactive: erlotinib 0.005 | [11] 0.024 | [1] 0.014 | [12] -0.01 | [2] -0.001 | [3] -0.017 | [13] -0.009 | [14] -0.001 | [15] 0.027 | IRAK-1-4 Inhibitor I 0.008 | ibrutinib -0.01 | [4] -0.017 | ralimetinib 0.004 | [5] -0.04 | [6] -0.007 | [7] 0.004 | [8] -0.016 | [16] 0.043 | [9] 0.011 | [10] 0.007

EIF2B5 (UniProt Q13144)
inactive: erlotinib 0.015 | [11] -0.052 | [1] -0.017 | [12] 0.011 | [2] 0.03 | [3] -0.011 | [13] -0.054 | [14] 0.006 | [15] 0.007 | IRAK-1-4 Inhibitor I 0.027 | ibrutinib 0 | [4] 0.008 | ralimetinib 0.027 | [5] -0.018 | [6] 0.008 | [7] -0.019 | [8] 0.012 | [16] -0.031 | [9] 0.008 | [10] 0.02

EPG5 (UniProt Q9HCE0)
inactive: erlotinib -0.214 | [1] -0.087 | [2] 0 | [3] 0.009 | [14] 0.015 | [15] 0.056 | IRAK-1-4 Inhibitor I 0.062 | ibrutinib -0.049 | [4] 0.024 | ralimetinib -0.087 | [5] 0.005 | [6] -0.056 | [7] -0.152 | [8] -0.078 | [16] 0.027 | [9] 0.012 | [10] -0.072

EIF4E3 (UniProt Q8N5X7)
inactive: erlotinib 0.101 | [11] 0.175 | [1] -0.194 | [12] -0.08 | [13] 0.054 | [14] -0.087 | [15] -0.095 | [6] 0.121 | [7] -0.272 | [16] -0.044

EIF4E isoform 2 (UniProt P06730)
inactive: erlotinib -0.014 | [11] -0.251 | [1] -0.033 | [12] -0.031 | [2] 0.039 | [3] -0.008 | [13] -0.009 | [14] 0.053 | [15] -0.014 | IRAK-1-4 Inhibitor I -0.01 | ibrutinib 0.031 | [4] 0.006 | ralimetinib 0.006 | [5] 0.003 | [6] -0.033 | [7] 0.003 | [8] 0.001 | [16] 0 | [9] 0.018 | [10] 0.003

ELP3 (UniProt Q9H9T3)
inactive: erlotinib -0.002 | [11] -0.012 | [1] 0.003 | [12] 0.009 | [2] -0.012 | [3] 0.003 | [13] 0.008 | [14] -0.002 | [15] 0.002 | IRAK-1-4 Inhibitor I 0.002 | ibrutinib -0.01 | [4] -0.01 | ralimetinib 0.004 | [5] -0.018 | [6] 0.005 | [7] 0.007 | [8] -0.011 | [16] -0.003 | [9] -0.003 | [10] -0.002

EMG1 (UniProt Q92979)
inactive: erlotinib -0.019 | [11] 0.036 | [1] 0.036 | [12] 0.011 | [2] 0.015 | [3] -0.019 | [13] -0.058 | [14] 0.012 | [15] 0.019 | IRAK-1-4 Inhibitor I 0.002 | ibrutinib 0.039 | [4] -0.009 | ralimetinib 0.035 | [5] -0.051 | [6] -0.053 | [7] -0.012 | [8] 0.021 | [16] 0.041 | [9] -0.029 | [10] 0.058

ELMO2 (UniProt Q96JJ3)
inactive: erlotinib -0.002 | [11] 0.053 | [1] -0.069 | [12] -0.03 | [3] 0.007 | [13] -0.33 | IRAK-1-4 Inhibitor I -0.114 | [4] 0.077 | ralimetinib 0.003 | [5] -0.028 | [6] 0.01 | [7] 0.025 | [8] -0.087 | [16] 0.243 | [9] 0.085 | [10] -0.11
